PMC5393187
No constants are given. Whether binding was seen depends on the method and setting. Binding seen in cells or lysates may run through a third protein. Here binding means that the protein was enriched with, or labelled near, the bait; the list need not be complete. Blank lines part the entries; values can stand above or below the molecule they belong to.

Protein sequences, listed by entry. Tags and fused reporters are not part of them.
UniProt P53327: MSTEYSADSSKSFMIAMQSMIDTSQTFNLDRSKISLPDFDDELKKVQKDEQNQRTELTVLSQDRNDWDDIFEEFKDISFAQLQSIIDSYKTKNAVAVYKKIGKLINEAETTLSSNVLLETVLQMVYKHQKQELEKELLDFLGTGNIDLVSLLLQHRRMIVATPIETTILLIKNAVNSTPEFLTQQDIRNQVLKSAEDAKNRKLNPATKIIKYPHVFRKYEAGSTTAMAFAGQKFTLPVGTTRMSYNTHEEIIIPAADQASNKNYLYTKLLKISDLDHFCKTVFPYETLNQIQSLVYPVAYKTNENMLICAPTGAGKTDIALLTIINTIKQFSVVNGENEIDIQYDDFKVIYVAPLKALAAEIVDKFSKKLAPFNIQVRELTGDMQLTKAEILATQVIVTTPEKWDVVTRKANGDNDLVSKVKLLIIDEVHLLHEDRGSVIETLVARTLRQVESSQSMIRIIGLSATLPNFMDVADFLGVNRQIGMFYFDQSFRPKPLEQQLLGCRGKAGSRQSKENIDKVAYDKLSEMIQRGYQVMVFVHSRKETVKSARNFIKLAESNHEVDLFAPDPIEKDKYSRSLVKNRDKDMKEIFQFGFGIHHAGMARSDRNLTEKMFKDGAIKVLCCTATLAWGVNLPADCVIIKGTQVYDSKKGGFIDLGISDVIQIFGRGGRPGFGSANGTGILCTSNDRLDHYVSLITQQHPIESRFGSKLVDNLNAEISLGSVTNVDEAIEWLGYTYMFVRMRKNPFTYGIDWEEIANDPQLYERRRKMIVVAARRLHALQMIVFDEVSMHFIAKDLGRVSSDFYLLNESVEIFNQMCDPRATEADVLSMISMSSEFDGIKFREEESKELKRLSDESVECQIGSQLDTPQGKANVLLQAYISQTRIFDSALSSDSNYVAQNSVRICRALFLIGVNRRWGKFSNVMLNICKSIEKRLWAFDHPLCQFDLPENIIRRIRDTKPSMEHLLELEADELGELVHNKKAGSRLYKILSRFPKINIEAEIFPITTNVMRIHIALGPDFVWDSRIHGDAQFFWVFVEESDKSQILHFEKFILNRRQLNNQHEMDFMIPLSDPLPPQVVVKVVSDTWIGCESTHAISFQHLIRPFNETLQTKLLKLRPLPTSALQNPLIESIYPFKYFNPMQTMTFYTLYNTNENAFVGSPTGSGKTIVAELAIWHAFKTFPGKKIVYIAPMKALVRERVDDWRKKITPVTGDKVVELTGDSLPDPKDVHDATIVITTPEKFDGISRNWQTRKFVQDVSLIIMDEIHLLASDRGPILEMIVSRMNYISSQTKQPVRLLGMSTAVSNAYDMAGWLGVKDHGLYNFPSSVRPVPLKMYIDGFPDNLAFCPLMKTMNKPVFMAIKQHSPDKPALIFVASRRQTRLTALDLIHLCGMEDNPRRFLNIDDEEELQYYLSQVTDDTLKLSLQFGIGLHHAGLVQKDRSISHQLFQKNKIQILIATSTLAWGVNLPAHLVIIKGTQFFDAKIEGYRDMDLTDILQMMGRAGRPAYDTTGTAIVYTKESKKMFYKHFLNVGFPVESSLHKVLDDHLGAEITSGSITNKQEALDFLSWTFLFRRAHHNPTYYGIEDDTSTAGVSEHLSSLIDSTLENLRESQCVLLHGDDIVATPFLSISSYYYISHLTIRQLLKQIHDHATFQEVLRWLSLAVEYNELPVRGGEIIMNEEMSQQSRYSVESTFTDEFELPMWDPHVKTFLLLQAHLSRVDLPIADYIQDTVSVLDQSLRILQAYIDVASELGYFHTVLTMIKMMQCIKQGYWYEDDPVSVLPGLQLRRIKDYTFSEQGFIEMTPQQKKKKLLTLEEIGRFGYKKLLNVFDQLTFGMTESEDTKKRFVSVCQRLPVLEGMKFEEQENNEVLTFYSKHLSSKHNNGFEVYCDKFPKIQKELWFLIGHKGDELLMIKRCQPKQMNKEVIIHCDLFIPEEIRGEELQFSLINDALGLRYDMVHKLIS
UniProt Q03195: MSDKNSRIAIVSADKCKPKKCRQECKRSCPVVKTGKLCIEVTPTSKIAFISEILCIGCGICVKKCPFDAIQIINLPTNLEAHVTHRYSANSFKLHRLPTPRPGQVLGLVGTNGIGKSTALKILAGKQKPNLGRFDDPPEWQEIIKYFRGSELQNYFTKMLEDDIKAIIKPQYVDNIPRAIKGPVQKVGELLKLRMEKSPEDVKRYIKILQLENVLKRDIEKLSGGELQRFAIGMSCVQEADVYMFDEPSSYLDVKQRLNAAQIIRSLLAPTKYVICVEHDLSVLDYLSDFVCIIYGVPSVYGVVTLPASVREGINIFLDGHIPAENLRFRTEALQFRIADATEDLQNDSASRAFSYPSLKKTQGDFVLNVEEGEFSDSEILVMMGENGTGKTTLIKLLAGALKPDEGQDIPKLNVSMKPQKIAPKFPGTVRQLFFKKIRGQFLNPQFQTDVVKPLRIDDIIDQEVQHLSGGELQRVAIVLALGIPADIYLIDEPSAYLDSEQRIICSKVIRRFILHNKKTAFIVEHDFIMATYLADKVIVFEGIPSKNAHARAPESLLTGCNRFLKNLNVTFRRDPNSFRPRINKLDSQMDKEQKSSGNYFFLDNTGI
UniProt P12385: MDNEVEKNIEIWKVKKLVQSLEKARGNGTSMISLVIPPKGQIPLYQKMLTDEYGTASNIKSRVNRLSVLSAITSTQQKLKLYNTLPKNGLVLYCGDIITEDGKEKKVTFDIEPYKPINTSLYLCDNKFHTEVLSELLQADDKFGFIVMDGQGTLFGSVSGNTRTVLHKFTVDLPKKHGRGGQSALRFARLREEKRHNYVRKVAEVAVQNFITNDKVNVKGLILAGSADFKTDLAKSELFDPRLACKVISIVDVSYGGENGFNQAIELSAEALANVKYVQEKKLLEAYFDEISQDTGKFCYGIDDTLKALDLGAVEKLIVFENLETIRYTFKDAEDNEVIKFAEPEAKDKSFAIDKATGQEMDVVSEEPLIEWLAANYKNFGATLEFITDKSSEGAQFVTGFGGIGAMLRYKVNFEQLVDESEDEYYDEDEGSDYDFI

Legend:
[1] = biological target: T1, Hel2 (S. cerevisiae) (UniProt Q05580); experiment: affinity purification with mass spectrometry; IPs of endogenously tagged Hel2 and Slh1 from cryo-ground yeast extract on Anti-FLAG M2 Affinity Resin, 1 h, 4°C, IP buffer (20 mM HEPES K pH 7.4, 100 mM KOAc, 10 mM MgCl2); eluted with 1 mg/mL 3xFlag peptide; enrichment against a nontagged control IP, two biological replicates
T1 sequence: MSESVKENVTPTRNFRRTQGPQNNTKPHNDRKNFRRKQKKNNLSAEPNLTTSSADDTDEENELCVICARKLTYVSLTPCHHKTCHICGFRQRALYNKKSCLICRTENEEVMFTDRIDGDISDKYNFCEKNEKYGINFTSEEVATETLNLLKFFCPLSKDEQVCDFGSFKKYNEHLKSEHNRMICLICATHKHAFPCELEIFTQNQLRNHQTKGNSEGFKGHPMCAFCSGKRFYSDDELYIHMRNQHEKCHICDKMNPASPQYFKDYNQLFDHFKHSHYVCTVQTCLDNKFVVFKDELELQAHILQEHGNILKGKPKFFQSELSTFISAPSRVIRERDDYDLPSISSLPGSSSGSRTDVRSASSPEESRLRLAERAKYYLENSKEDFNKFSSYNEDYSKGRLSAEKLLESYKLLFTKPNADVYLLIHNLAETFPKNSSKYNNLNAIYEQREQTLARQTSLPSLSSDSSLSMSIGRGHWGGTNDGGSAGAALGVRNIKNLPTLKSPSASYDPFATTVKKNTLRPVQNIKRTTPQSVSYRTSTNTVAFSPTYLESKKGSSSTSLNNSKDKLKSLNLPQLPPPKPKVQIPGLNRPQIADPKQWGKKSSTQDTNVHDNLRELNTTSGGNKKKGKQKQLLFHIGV

[2] = biological target: Slh1 (S. cerevisiae) (UniProt P53327); experiment: as above

B1: Cue3 (protein, UniProt P53137 1-624)
chain: MLSRYNRVIEINGGNADISLPIVKFPPFKLRAQLIEKDPVVWLHLIETYVTYFEYLMQGANVELLDESTLDHLRLFLRTYLHEIADEEGKLLSLGINHDVSEQLYLLKGWIFSLIKKCGLLHLQIFGDSLWNLIKVYVRRNPDSIRGLIDGSLKPRINTQRVQLDKSYQVQQHLKQLIESGKFKRIDLRCVEDLLSAKSMQPNKFAENFFTANWIEILEALWAKGQGRGHKEARELIIISLFSVSADRLLKITKELGISNFETLALYPLLGTMLINEGVHKRLPDLKSKLLFLNLGGLSMDEGDHMSYPTSSGTEVNEEQLSALMELFPQFSKYQLSQTLLAYDNNIELVTNKIFEDPTIIEAFSREPAEEEVEPVSDGDNASFTEELSILDRGDSSKNKELDKKIISEGVPDELRNKTLTRALKLLYEADEDERDDTYDEADVNRSDPSKRIGLQEDEESYDTKDDSNEVRQDHNYHIVEAYLWNLLKEDPKLFERSKRGTKVRKTMKEMTSWSDEKIEGWCRMLERSPTRARLLEKKFMFKGNSKTGKTSYVHNRDSQNDGNVVKEQAKQKKSENIKKHEPQSTEQKKRQHAKNEKRKGARANHNRKKGHDKKLARAGNNAI
binding [1]: binds
binding [2]: binds

B2: Ykr023w (protein, UniProt P36119 1-530)
chain: MTRKQAIDYAIKQVPQILPLEESDVKALCEQVLSTSSDDPEQIASKFLEFLGHEDLSFEFVMKFNELLNQNDKKEEKKTKNVHLEHTAPTSWKNESKQPTNNYINKKGDEKPKKLKDEKKSSTTRPTVQPSNQSTQSNPIKEKKEHRSKGKLQSLQEIDEAIKMLELRDSGSSKNCNCQGTRHPVFDIAPNCLHCGKVVCVIEGLNKGKCGHCHEQLISDNERTQMVEILNQEKNELNGSSSSLSNASNGANVPKKKTKTYKITSGMGKNLFAEQDKLFDFIERKRERERKRNEVLKLQEEKEESEAKERQASEHDHKAEENPELLAAQERLDRLLYFQDTSAERTKIIDNASDFDMNQEVGLWGSARERALALKKQQRNLRKWEKVEKERNGRREKYVVSMNIGSNGKVTMTEVPKDTENVIAGSDDDISDISDEEDISDLKHIHALKSEINTTKSLENLHLQSKAWDYERDKKQFDRPTYVKKNSDTAQQNRKTEEKAHDMQAYDLKSRVQVDQNADASVEQNILAVL
binding [1]: binds
binding [2]: binds

Results, then the molecule that gave them:

binding [1]: binds
binding [2]: binds
Molecule: Rli1 (from UniProt Q03195 1-608)

binding [1]: binds
binding [2]: binds
Molecule: eRF1(Sup45) (from UniProt P12385 1-437)
